The list shows a part of the results. This data set is noisy: repeats of one test often differ as much as different tests do.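 Human kidney-derived cells stably carry a construct in which eight TEAD-binding elements drive luciferase, measured by luminescence in a drug-repurposing library screen. A hit is any compound whose signal exceeds the plate mean by more than five robust Z scores.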
Test system: HEK293A TEAD-LUC reporter
Assay: TEAD-luciferase reporter activity (YAP activation), robust Z score vs plate; higher = stronger YAP/TEAD activation
Conditions: 24 h

Compound	TEAD-luciferase reporter activity (compound concentration: 200 nM)	TEAD-luciferase reporter activity (compound concentration: 2 uM)	TEAD-luciferase reporter activity (compound concentration: 10 uM)
CN(C)Cc1cccc(N/C(=C2\C(=O)Nc3cc(C(=O)N(C)C)ccc32)c2ccccc2)c1	inactive: -0.465	inactive: -1.5	inactive: 1.45
COc1ccc2c(c1)CC[C@H](CN(C)CC(=O)O)[C@@H]2c1ccccc1	inactive: -0.288	inactive: 0.298	inactive: -1.55
CCCN(CCC)CCc1cccc2c1CC(=O)N2 [ropinirole XR]	–	inactive: 0.217	–
CCCN(CCC)CCc1cccc2c1CC(=O)N2 [ropinirole XR, GSK]	inactive: -0.375	–	inactive: -0.714
COc1ccccc1CN(C[C@@H](Cc1c[nH]c2ccccc12)NC(=O)CN1CCC(N2CCCCC2)CC1)C(C)=O	inactive: -0.931	inactive: 0.749	inactive: 2.05
Nc1ccc(S(N)(=O)=O)cc1 [Sulfanilamide]	inactive: -0.233	inactive: 0.166	inactive: 0.0561
O=C(Nc1ccc(C(F)(F)F)cc1)C1CCN(C(=O)Cn2c(=O)sc3ccc(Cl)cc32)CC1	inactive: -0.628	inactive: -1.99	inactive: 1.08
Cc1cc(C)c2nc(-c3cnc(NCCCC4CCN(C)CC4)nc3C)[nH]c2c1 [Toreforant]	inactive: -0.607	inactive: -0.732	inactive: 1.04
O=C(Nc1cccc(C(F)(F)F)c1)c1cc(Br)cc(Br)c1O	inactive: -0.0209	inactive: -1.99	inactive: -1.21
COc1cc(Cc2cnc(N)nc2N)cc(OC)c1N(C)C	inactive: -0.0646	inactive: -0.66	inactive: 0.52
Cc1cc2c(CCc3sc(-c4ccc(C(F)(F)F)cc4)nc3C(C)C)noc2cc1OCC(=O)O [Fonadelpar]	inactive: -0.334	inactive: -0.582	inactive: -1.29
CC#Cc1cncc(-c2ccc3c(c2)[C@@]2(N=C(C)C(N)=N2)[C@]2(CC[C@H](OC)CC2)C3)c1 [Lanabecestat]	inactive: 0.704	inactive: -1.21	inactive: 2.91
C[C@@H]1O[C@@H](OC[C@H]2O[C@@H](Oc3cc4c(O)cc(O)cc4[o+]c3-c3ccc(O)c(O)c3)[C@H](O)[C@@H](O)[C@@H]2O)[C@H](O)[C@H](O)[C@H]1O	inactive: 1.12	inactive: -0.53	inactive: 2.22
O=C(O)Cc1csc(NC(=O)N(C2CCCCC2)C2CCCCC2)n1	inactive: -0.242	inactive: -1.29	inactive: -0.366
Cc1ccc(C)c(OCCCC(C)(C)C(=O)O)c1	inactive: 2.38	–	inactive: -0.705
Cc1ccc(C)c(OCCCC(C)(C)C(=O)O)c1 [gemfibrozil]	–	inactive: -1.14	–

Some values from the results shown.
For TEAD-luciferase reporter activity (compound concentration: 2 uM), COc1ccc2c(c1)CC[C@H](CN(C)CC(=O)O)[C@@H]2c1ccccc1 is entered as inactive: 0.298
For TEAD-luciferase reporter activity (compound concentration: 2 uM), O=C(O)Cc1csc(NC(=O)N(C2CCCCC2)C2CCCCC2)n1 is entered as inactive: -1.29
